Consider 18 molecules from article PMC10163288.

The list shows a part of the results.

The labels stand for the following.
B1: il10ra_site1_normal_mot_HHH_b2_02116_af2_000000165_0001_41_55_H_._HHH_b1_06457_0001_0000100001_0000001_0 (protein)
chain: SSSDHERAVELLLRAAEIAFERGNPHQARAAIRLAREIAERINDEELEELVEEVERRLEESSSSS
B2: il10ra_site1_sap_24_mot_HHH_b2_07873_af2_000000172_0001_1_19_H_._HHH_b2_07020_0001_0000200011_0000002_0_0001 (protein)
chain: SSSSDLEEEIEELLKELEELIKEGDHERILHLIQRIEHLIFQASNAELLEILWELAKRHISSSSS
B3: il10ra_site1_normal_mot_HHH_b2_03425_000000200_0001_22_39_H_._HHH_b2_07864_af2_0001_0000400039_0000001_0 (protein)
chain: SSSSTEENEELYRLLRELIELVHEGDEEEFERLLEEVERLAKELNNFAIRFVVRLLERDLTSSSS
B4: il10ra_site1_normal_mot_HHH_b1_05860_000000142_0001_1_19_H_._HHH_b2_02987_af2_0001_0000200006_0000001_0_af2pred_dldesign_0_af2pred (protein)
chain: SSSSNPNEEIVELIREAAELLAEGKPEEARELLERARALAEAANNPILIATVDFLLKQVESSSSS
B5: il10ra_site1_normal_mot_HHH_b2_05686_000000041_0001_1_18_H_._HHH_b2_01846_0001_0000100018_0000001_0 (protein)
chain: SSSSTAEESLRFALRLAEERIELGNPEHARVVLELALRFAKESEDEELLEEVEKLLEELGSSSSS
B6: il10ra_site1_normal_mot_HHH_b1_03859_af2_000000004_0001_44_57_H_._HHH_b1_08440_0001_0000100002_0000002_0_af2pred_0001 (protein)
chain: SSSSSEVLKEAAQLYLEAAELLEEGDKEEVEKIIEELRELSEEYGDEIVKLILKDLEASLSSSSS
B7: il10ra_site1_sap_21_mot_HHH_b1_05254_000000006_0001_1_19_H_._74d410084df75ce7804895407938b8fc_0001_0001_0000400013_0000001_0_0001 (protein)
chain: SSSSTVMRISLRVLLELVRELEKEGDPERAEEVLEMAEEYAEQAGDEELLEEIRRLLEELRSSSS
B8: il10ra_site1_sap_18_mot_HHH_b2_01310_000000089_0001_41_55_H_._HHH_b1_07565_0001_0000100004_0000002_0_0001 (protein)
chain: SSSSSSDLEELLEELEQLLEEGDRERFLRVAQEILRLAFQLSDPEVLRAVWELVKKLASSSSSSS
B9: il10ra_site1_normal_mot_HHH_b2_03328_af2_000000127_0001_1_19_H_._HHH_b1_06423_0001_0000100002_0000001_0_af2pred_0001 (protein)
chain: SSSSSSSHTERIRELAEEALRIEDPEEAREVVEEAEELAEENNNLVALVNIRFLLELLSSSSSSS
B10: il10ra_site1_sap_22_mot_HHH_b1_04327_000000247_0001_1_20_H_._HHH_b2_00385_af2_0001_0000200012_0000001_0_0001 (protein)
chain: SSSSSDKREEALELAKEAFRLLLRGNPEEAREVLEEAEEVAKEAGNEHIKEMLRDLLRAASSSSS
B11: il10ra_site1_sap_40_mot_HHH_b1_00102_af2_000000216_0001_43_57_H_._HHH_b1_07360_0001_0000500039_0000002_0_0001_af2pred_0001 (protein)
chain: SSSSSDEEELEEEAKRLMEELEKHGDPELFTRLAELAKLLAELGNPLFEEVAELLARLQSSSSSS
B12: il10ra_site1_sap_10_mot_HHH_b1_06819_af2_000000053_0001_23_38_H_._69439ac408d0f939e9e32959957563f1_0001_0001_0000200021_0000001_0_0001 (protein)
chain: SSSSSEELERVFELARELAELLHEGDEERFKEVLEELERLVEELNNDVFRMIVEYLEKALSSSSS
B13: il10ra_site1_sap_11_mot_05ca327611f5605f0dd8494b449afcbf_0001_1_000000248_0001_35_51_H_._HHH_b2_04323_af2_0001_0000100001_0000001_0_0001_af2pred_0001 (protein)
chain: SSSSDEAHELARRAIELILRLLKEGNPEEAEEVYEEFKRLLEELGDESALLSLEFALERNSSSSS
B14: il10ra_site1_sap_22_mot_HHH_b2_05454_000000273_0001_1_18_H_._HHH_b1_05327_0001_0000200017_0000001_0_0001 (protein)
chain: SSSSSSEEELRERVEELLEEAEQITNWEEAIEVLLEALQLAIQGQDPELLQRVWEVVHRLSSSSS
B15: il10ra_site1_normal_mot_HHH_b1_00137_000000000_0001_1_19_H_._HHH_b2_06740_0001_0000300009_0000002_0 (protein)
chain: SSSDDQERTRFAAEVVVRLYDELGLSREQLQVLQELALKLVLEGFSEEEIREILEEVAKELSSSS
B16: il10ra_site1_normal_mot_8756ee2cf497b5429c717dfc0c0bcfd6_0001_000000186_0001_1_13_H_._HHH_b2_04770_af2_0001_0000600021_0000002_0 (protein)
chain: SSSSSSDEALRRVIELIRLAVQIEDEEELQEVLEEARELAEELGNDVLKWQVEYLLRNLTSSSSS
B17: il10ra_site1_normal_mot_HHH_b2_03425_000000200_0001_22_39_H_._HHH_b2_05523_af2_0001_0000100001_0000002_0 (protein)
chain: SSSSDERREEAYELLRELIEAVREGNEELFEKIAEEIKELIEELGSELLRFVLEHLEKDLGSSSS
B18: il10ra_site1_sap_29_mot_HHH_b1_05377_000000047_0001_42_55_H_._HHH_b1_07220_0001_0000200022_0000001_0_0001 (protein)
chain: SSSSSDENEEAMELLREASELAQKGDREKAEEVLEEALELAERLGNMVLQWSIRYLLERLSSSSS

For the test, the target named is il10ra, Q13651. As to the kind of experiment: yeast display titration.
B1: the apparent Kd (as a rule, the concentration giving half-maximal binding under the conditions of the assay) is “inactive: no binding seen”.
Take B2: the “apparent Kd” value was “inactive: no binding seen”.
For the molecule B3, the “apparent Kd” value was “inactive: no binding seen”.
Take B4: the “apparent Kd” value was “inactive: no binding seen”.
With B5, the “apparent Kd” value was “inactive: no binding seen”.
Next, B6: “inactive: no binding seen”; B7: “inactive: no binding seen”; B8: inactive: > 1080 nM.
Regarding B9, the “apparent Kd” value is “inactive: no binding seen”.
In the case of B10, the “apparent Kd” value is “inactive: no binding seen”.
With B11, the “apparent Kd” value was “inactive: no binding seen”.
Take B12: the “apparent Kd” value is “inactive: no binding seen”.
B13: the “apparent Kd” value is “inactive: no binding seen”.
Take B14: the “apparent Kd” value is “inactive: no binding seen”.
Consider B15, for which the “apparent Kd” value is “inactive: no binding seen”.
As to B16, the “apparent Kd” value was “inactive: no binding seen”.
As for B17, the “apparent Kd” value is “inactive: no binding seen”.
Next, B18: “inactive: no binding seen”.
